No constants are given. Whether binding was seen depends on the method and setting. Some entries that bind do so weakly or less than the wild type.

Data on six molecules can be found in WO2017153953A1.

The target in assay [1] is T1, human MCAM protein (human) (UniProt P43121).
T1 sequence: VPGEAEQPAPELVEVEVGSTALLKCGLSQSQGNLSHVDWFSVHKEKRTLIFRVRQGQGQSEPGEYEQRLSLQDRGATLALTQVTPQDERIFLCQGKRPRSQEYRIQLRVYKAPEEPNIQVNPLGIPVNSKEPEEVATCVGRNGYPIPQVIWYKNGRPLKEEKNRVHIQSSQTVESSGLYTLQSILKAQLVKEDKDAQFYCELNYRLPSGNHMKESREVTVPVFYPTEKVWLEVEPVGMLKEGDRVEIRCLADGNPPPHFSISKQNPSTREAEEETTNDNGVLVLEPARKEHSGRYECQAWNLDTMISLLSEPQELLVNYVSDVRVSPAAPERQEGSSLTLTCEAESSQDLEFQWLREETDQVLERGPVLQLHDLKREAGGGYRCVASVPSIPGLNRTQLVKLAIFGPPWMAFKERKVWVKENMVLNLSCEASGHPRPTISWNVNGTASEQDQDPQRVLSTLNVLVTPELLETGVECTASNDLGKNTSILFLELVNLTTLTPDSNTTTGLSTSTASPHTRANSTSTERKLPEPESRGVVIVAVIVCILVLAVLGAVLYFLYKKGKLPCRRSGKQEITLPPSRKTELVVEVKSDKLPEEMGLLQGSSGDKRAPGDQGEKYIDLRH
Description: summary of Examples 2 and 3.

For assay [2], the target named is T1, human MCAM protein (human). Description: bio-layer interferometry, ForteBio Octet QK; numbers stood in Table 6, which is not in this copy. (In general: In BLI a coated tip is dipped into the sample, and binding shifts an interference pattern.)
The target in assay [3] is T2, human MCAM expressed on transfected CHO cells (human) (UniProt P43121).
T2 sequence: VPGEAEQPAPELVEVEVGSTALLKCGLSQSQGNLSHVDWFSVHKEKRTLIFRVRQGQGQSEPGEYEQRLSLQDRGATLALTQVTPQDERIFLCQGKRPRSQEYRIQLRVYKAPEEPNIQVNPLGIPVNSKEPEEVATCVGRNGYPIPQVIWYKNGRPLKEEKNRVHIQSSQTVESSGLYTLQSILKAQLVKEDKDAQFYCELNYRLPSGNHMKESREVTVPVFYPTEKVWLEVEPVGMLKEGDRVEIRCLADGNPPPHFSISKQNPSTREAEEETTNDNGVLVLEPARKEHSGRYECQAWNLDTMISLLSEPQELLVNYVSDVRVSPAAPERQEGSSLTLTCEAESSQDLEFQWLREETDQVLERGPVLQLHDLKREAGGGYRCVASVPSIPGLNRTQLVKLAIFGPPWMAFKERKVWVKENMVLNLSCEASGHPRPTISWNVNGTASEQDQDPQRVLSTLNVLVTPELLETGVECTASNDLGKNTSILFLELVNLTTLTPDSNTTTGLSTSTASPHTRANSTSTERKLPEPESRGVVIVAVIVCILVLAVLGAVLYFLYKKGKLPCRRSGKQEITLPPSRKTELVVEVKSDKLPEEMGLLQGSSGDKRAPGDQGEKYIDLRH
Briefly: cells expressing human MCAM.

For assay [4], the target named is T3, human MCAM domains 1 and 2 hFc (human) (UniProt P43121).
T3 sequence: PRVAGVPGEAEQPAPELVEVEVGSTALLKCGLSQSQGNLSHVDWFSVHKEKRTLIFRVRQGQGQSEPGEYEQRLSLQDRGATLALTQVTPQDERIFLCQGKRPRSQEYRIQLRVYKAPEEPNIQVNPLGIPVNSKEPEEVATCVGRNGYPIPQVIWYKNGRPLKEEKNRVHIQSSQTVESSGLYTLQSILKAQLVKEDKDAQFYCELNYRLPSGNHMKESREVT
Briefly: ForteBio Octet; MCAMhFc domains on anti-human IgG Fc biosensor, antibody at 5 ug/ml.

B1: mouse anti-human MCAM monoclonal antibody clone 1415.1.1 (antibody, V domains shown)
VH: QVQLQQPGAELVQPGAPVKLSCKASGYIFTSYWMNWVKQRPGRGLEWIGRIDPSDSKIHYNQKFKDKATLTVDRSSSTAYIQLGSLTSEDSAVYYCAKEGGLRRGDYAMDYWGQGTSVTVSS
VL: DIVMTQSPATLSVTPGDRVSLSCRASQSISDYLHWYQQKSHESPRLLIKYASQSISGIPSRFSGSGSGSDFTLSINSVEPEDVGVYYCQNGHNFPRTFGGGTKLEIK
For the molecule B1, the binding entry in assay [1] is on record as “binds”.

B2: mouse anti-human MCAM monoclonal antibody clone 1174.1.3 (antibody, V domains shown)
VH: QIQLVQSGPELKKPGETVKISCKASGYTFTNYGMNWVKQAPGKGLKWMGWINTYTGEPTYADDFKGRFALSLETSASTAYLQINNLKNEDMATYFCARYRYNKYERAMDYWGQGTSVTVSS
VL: DIVLTQSPASLAVSLGQRATISCRASKSVSTSGYSYMYWYQQKPGQPPKLLIYLASNLESGVPARFSGSGSGTDFTLNIHPVEEEDAATYYCQHSRELPFTFGSGTKLEIK
As for B2, the binding result in assay [1] is listed as “binds”.

B3: mouse anti-human MCAM monoclonal antibody clone 1414.1.2 (antibody, V domains shown)
VH: EIQLQQTGPELVKPGASVKISCKASGYSFTDYIMLWVKQSHGKSLEWIGNINPYSGSSGYNLKFKGKATLTVDKSSSTAYMQLNSLTSEDSAVYYCARGKDFAMDYWGQGTSVTVSS
VL: DIVMSQSPSSLAVSAGEKVTMSCKSSQSLLNSSTRKNFLAWYQQKPGQSPKLLIYWASTRESGVPDRFTGSGSGTDFTLTISSVQAEDLAVYYCKQSYNRYTFGGGTKLEIK
Regarding B3, the binding entry in assay [1] is reported as “binds”.

B4: mouse anti-human MCAM monoclonal antibody clone 1749.1.3 (antibody, V domains shown)
VH: DVKLVESGGDLVKPGGSLKLSCAASGFTFSSYIMSWVRQTPEKRLEWVATISSGGSSTYYPDSVKGRFTISRDNAKNTLYLQMSSLKSEDTAMYYCTRDDDYDVKVFAYWGQGTLVTVSA
VL: DIVMSQSPSSLAVSAGEKVTMNCKSSRSLLNSRIRKNYLAWYQQKPGQSPKLLIYWASTRESGVPDRFTGSGSGTDFTLTISSVQAEDLAVYYCKQSYNLLTFGAGTKLELK
On to B4, for which the binding result in assay [1] and in assay [2] was “binds” in each case.

B5: rat anti-human MCAM monoclonal antibody clone 2107.4.10 (antibody, V domains shown)
VH: QVQLKESGPGLVQSSQTLSLTCTVSGFSLTSNGVSWVRQPPGKGLEWIAAISSGGSTYYNSAFKSRLSISRNTSKSQVLLKMNSLQTEDTGMYFCARHRPFYFDYWGQGVMVTVSS
VL: DIQVTQSPSLLSASVGDRVTLNCKGSQNIYKSLAWFRLKRGEAPKLLIYDANSLQTGIPSRFSGSGSGTDFTLTITSLQPEDVATYFCQQYYSGYTFGAGTKLELK
Take B5: the binding result in assay [3], in assay [1] and in assay [4] was “binds” in each case.

B6: rat anti-human MCAM monoclonal antibody clone 2120.4.19 (antibody, V domains shown)
VH: QVQLKESGPGLVQPSQTLSLTCTVSGFSLTSNGVSWVRQPPGKGLEWIAAISSGGTTYYNSAFKSRLSISRNTSKSQVLLKMNSLQTEDTAMYFCARRYGYGWYFDFWGPGTMVTVSS
VL: DIRMTQSPSLLSASVGDRVTLNCKASQNIYNSLAWYQQKLGEGPKVLIFNANSLQTGIPSRFSGSGSGTDFTLTISSLQPEDFATYFCQQFYSGYTFGAGTKLELK
As for B6, the binding entry in assay [3], in assay [1] and in assay [4] was “binds” in each case.
